# The other results are listed elsewhere or left out. Repeats are few or missing, and single values can be far off.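 Cells were imaged in 1,536-well plates, and nuclei stained with an antibody against cleaved PARP were counted against all DNA-stained nuclei to give the apoptosis fraction. Screening doses were chosen to leave most cells alive, and resting and induced cleaved-PARP levels differ strongly between cell lines.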
# Tested on: A375
# Test: cleaved PARP positive nuclei fraction relative to DMSO control; melanoma cells; higher = more apoptosis
# Settings: library dose: low library concentration; 72 h
row,SMILES,cleaved PARP positive nuclei fraction
1,"COc1ccc(-c2ccc3c(N4CCOCC4)nc(N4C[C@@H](C)O[C@@H](C)C4)nc3n2)cc1CO + CCCCCCCCCCCC1=C(O)C(=O)C=C(O)C1=O [Embelin] (first compound 0.02 µM, partner dose 1.2 µM)",23.6%
2,"Cn1cc(/C=C2\C(=O)Nc3cccnc32)c2ccccc21 + CCCCCCCCCCCC1=C(O)C(=O)C=C(O)C1=O [Embelin] (first compound 0.4 µM, partner dose 1.2 µM)",126%
3,"NCC(=O)Nc1ccc(-n2nc(C(F)(F)F)cc2-c2ccc3c(ccc4ccccc43)c2)cc1 + COc1ccc(-c2ccc3c(N4CCOCC4)nc(N4C[C@@H](C)O[C@@H](C)C4)nc3n2)cc1CO [KU0063794] (first compound 1 µM, partner dose 0.02 µM)",737%
4,"CCN(CC)CCCCNc1ncc2cc(-c3cc(OC)cc(OC)c3)c(NC(=O)NC(C)(C)C)nc2n1 + Oc1nc(-c2ccc(C(F)(F)F)cc2)nc2c1CSCC2 [XAV939] (first compound 0.1 µM, partner dose 2 µM)",61.9%
5,"O=C(O)c1ccc(-c2c[nH]c3ncc(-c4ccccc4)cc23)cc1C1CCCC1 + O=c1cc(-c2cccc3c2Sc2ccccc2S3)oc(N2CCOCC2)c1 [KU55933] (first compound 0.16 µM, partner dose 1 µM)",102%
6,"CCN(CC)CCCCNc1ncc2cc(-c3cc(OC)cc(OC)c3)c(NC(=O)NC(C)(C)C)nc2n1 + O=S(=O)(c1ccccc1)N(CC(F)(F)F)c1ccc(C(O)(C(F)(F)F)C(F)(F)F)cc1 [T0901317] (first compound 0.1 µM, partner dose 1.4 µM)",191%
7,"COc1ccc2c(c1)CCC1C2CCC2(C)C(NCCCCCCN3C(=O)C=CC3=O)CCC12 (stereo not given) + COc1ccc(-c2ccc3c(N4CCOCC4)nc(N4C[C@@H](C)O[C@@H](C)C4)nc3n2)cc1CO [KU0063794] (first compound 0.4 µM, partner dose 0.02 µM)",83.3%
8,"COc1cc2c(Oc3ccc4[nH]c(C)cc4c3F)ncnc2cc1OCCCN1CCCC1 [cediranib] + Oc1nc(-c2ccc(C(F)(F)F)cc2)nc2c1CSCC2 [XAV939] (first compound 0.4 µM, partner dose 2 µM)",173%
9,"COc1ccc(-c2ccc3c(N4CCOCC4)nc(N4C[C@@H](C)O[C@@H](C)C4)nc3n2)cc1CO + COc1ccc(COc2ccc(Cc3cnc(N)nc3N)cc2OC)cc1 [GW2580] (first compound 0.02 µM, partner dose 1 µM)",78.7%
10,"O=C(Nc1ccccc1)c1cc([N+](=O)[O-])ccc1Cl + c1cc(-c2cnn3cc(-c4ccc(OCCN5CCCCC5)cc4)cnc23)ccn1 [Dorsomorphin] (first compound 2 µM, partner dose 0.4 µM)",37.3%
11,"NCC(=O)Nc1ccc(-n2nc(C(F)(F)F)cc2-c2ccc3c(ccc4ccccc43)c2)cc1 + O=c1cc(-c2cccc3c2Sc2ccccc2S3)oc(N2CCOCC2)c1 [KU55933] (first compound 1 µM, partner dose 1 µM)",1270%
12,"COC(=O)c1sccc1S(=O)(=O)Nc1ccc(Nc2ccccc2)cc1OC + COc1ccc(COc2ccc(Cc3cnc(N)nc3N)cc2OC)cc1 [GW2580] (first compound 1 µM, partner dose 1 µM)",73.1%
13,"NCC(=O)Nc1ccc(-n2nc(C(F)(F)F)cc2-c2ccc3c(ccc4ccccc43)c2)cc1 + Oc1nc(-c2ccc(C(F)(F)F)cc2)nc2c1CSCC2 [XAV939] (first compound 1 µM, partner dose 2 µM)",8440%
14,"NCC(=O)Nc1ccc(-n2nc(C(F)(F)F)cc2-c2ccc3c(ccc4ccccc43)c2)cc1 + N#Cc1c(O)c2c(-c3ccc(-c4ccccc4O)cc3)csc2[nH]c1=O [A769662] (first compound 1 µM, partner dose 2 µM)",1300%
15,"CCc1ccc(CCOc2ccc(CC3SC(=O)NC3=O)cc2)nc1 (stereo not given) [pioglitazone] + COc1ccc2c(c1)CCC1C2CCC2(C)C(NCCCCCCN3C(=O)C=CC3=O)CCC12 [U73122] (first compound 2 µM, partner dose 0.4 µM)",197%
16,"COc1cc(N2CCC(N3CCN(C)CC3)CC2)ccc1Nc1ncc(Cl)c(Nc2ccccc2S(=O)(=O)C(C)C)n1 + CCCCCCCCCCCC1=C(O)C(=O)C=C(O)C1=O [Embelin] (first compound 0.08 µM, partner dose 1.2 µM)",82.9%
17,"N#Cc1c(O)c2c(-c3ccc(-c4ccccc4O)cc3)csc2[nH]c1=O + COc1ccc(-c2ccc3c(N4CCOCC4)nc(N4C[C@@H](C)O[C@@H](C)C4)nc3n2)cc1CO [KU0063794] (first compound 2 µM, partner dose 0.02 µM)",138%
18,"NCC(=O)Nc1ccc(-n2nc(C(F)(F)F)cc2-c2ccc3c(ccc4ccccc43)c2)cc1 + O=S(=O)(c1ccccc1)N(CC(F)(F)F)c1ccc(C(O)(C(F)(F)F)C(F)(F)F)cc1 [T0901317] (first compound 1 µM, partner dose 1.4 µM)",1470%
19,"O=C1NC(=O)/C(=C/c2ccc(-c3ccc(F)cc3O)o2)S1 + CC(C)CCN1c2nc(Nc3cc(F)c(O)c(F)c3)ncc2N(C)C(=O)C1C [BID1870] (first compound 1 µM, partner dose 0.2 µM)",10.3%
20,"NCC(=O)Nc1ccc(-n2nc(C(F)(F)F)cc2-c2ccc3c(ccc4ccccc43)c2)cc1 + O=C(Nc1ccccc1)c1cc([N+](=O)[O-])ccc1Cl [GW9662] (first compound 1 µM, partner dose 2 µM)",6550%
21,"O=S(=O)(c1ccccc1)N(CC(F)(F)F)c1ccc(C(O)(C(F)(F)F)C(F)(F)F)cc1 + c1cc(-c2cnn3cc(-c4ccc(OCCN5CCCCC5)cc4)cnc23)ccn1 [Dorsomorphin] (first compound 1.4 µM, partner dose 0.4 µM)",58.7%
22,"COc1ccc(COc2ccc(Cc3cnc(N)nc3N)cc2OC)cc1 + Cn1cc(/C=C2\C(=O)Nc3cccnc32)c2ccccc21 [GW441756] (first compound 1 µM, partner dose 0.4 µM)",112%
23,"Oc1cc(-c2nc(-c3ccccc3)[nH]c2-c2ccncc2)ccc1Cl + c1cc(-c2cnn3cc(-c4ccc(OCCN5CCCCC5)cc4)cnc23)ccn1 [Dorsomorphin] (first compound 0.2 µM, partner dose 0.4 µM)",181%
24,"COc1ccc2c(c1)CCC1C2CCC2(C)C(NCCCCCCN3C(=O)C=CC3=O)CCC12 (stereo not given) + CC(C)CCN1c2nc(Nc3cc(F)c(O)c(F)c3)ncc2N(C)C(=O)C1C [BID1870] (first compound 0.4 µM, partner dose 0.2 µM)",549%
25,"O=C1NC(=O)/C(=C/c2ccc(-c3ccc(F)cc3O)o2)S1 + c1cc(-c2cnn3cc(-c4ccc(OCCN5CCCCC5)cc4)cnc23)ccn1 [Dorsomorphin] (first compound 1 µM, partner dose 0.4 µM)",101%
26,"O=C(O)C(=O)Nc1sc2c(c1C(=O)O)CCNC2 + Oc1nc(-c2ccc(C(F)(F)F)cc2)nc2c1CSCC2 [XAV939] (first compound 1.66667 µM, partner dose 2 µM)",149%
27,"Oc1cc(-c2nc(-c3ccccc3)[nH]c2-c2ccncc2)ccc1Cl + Cc1cc([N+](=O)[O-])ccc1NS(=O)(=O)c1cc(Cl)ccc1Cl [FH535] (first compound 0.2 µM, partner dose 1 µM)",265%
28,"CN(C)S(=O)(=O)c1ccc2c(c1)/C(=C/c1cc3c([nH]1)CCCC3)C(=O)N2 + O=S(=O)(c1ccccc1)N(CC(F)(F)F)c1ccc(C(O)(C(F)(F)F)C(F)(F)F)cc1 [T0901317] (first compound 0.4 µM, partner dose 1.4 µM)",150%
29,"N#Cc1c(O)c2c(-c3ccc(-c4ccccc4O)cc3)csc2[nH]c1=O + O=C(O)C(=O)Nc1sc2c(c1C(=O)O)CCNC2 [TCS401] (first compound 2 µM, partner dose 1.66667 µM)",95.8%
30,"O=C1NC(=O)/C(=C/c2ccc(-c3ccc(F)cc3O)o2)S1 + Oc1nc(-c2ccc(C(F)(F)F)cc2)nc2c1CSCC2 [XAV939] (first compound 1 µM, partner dose 2 µM)",94.5%

# 2 entries drawn at random from the list so far, as already listed:
row,SMILES,cleaved PARP positive nuclei fraction
22,"COc1ccc(COc2ccc(Cc3cnc(N)nc3N)cc2OC)cc1 + Cn1cc(/C=C2\C(=O)Nc3cccnc32)c2ccccc21 [GW441756] (first compound 1 µM, partner dose 0.4 µM)",112%
9,"COc1ccc(-c2ccc3c(N4CCOCC4)nc(N4C[C@@H](C)O[C@@H](C)C4)nc3n2)cc1CO + COc1ccc(COc2ccc(Cc3cnc(N)nc3N)cc2OC)cc1 [GW2580] (first compound 0.02 µM, partner dose 1 µM)",78.7%

# From the supplement of paper PMC4604168 (melanoma cell lines)
